The target in one assay is T1, 3xflag-FLI1 (UniProt Q01543).
T1 sequence: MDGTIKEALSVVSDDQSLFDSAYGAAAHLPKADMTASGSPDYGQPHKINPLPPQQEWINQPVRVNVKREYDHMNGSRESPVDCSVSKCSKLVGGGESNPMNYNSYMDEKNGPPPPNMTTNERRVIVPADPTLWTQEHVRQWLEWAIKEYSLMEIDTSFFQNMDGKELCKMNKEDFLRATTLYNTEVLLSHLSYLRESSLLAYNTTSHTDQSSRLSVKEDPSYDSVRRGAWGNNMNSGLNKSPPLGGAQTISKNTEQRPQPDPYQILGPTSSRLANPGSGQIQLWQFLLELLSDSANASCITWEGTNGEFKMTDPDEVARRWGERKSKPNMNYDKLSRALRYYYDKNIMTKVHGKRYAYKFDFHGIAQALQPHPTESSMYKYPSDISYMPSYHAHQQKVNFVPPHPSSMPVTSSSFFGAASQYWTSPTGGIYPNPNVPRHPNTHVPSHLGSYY
The assay can be described thus: co-IP; 3xflag proteins co-expressed with 3xmyc-USP19 in HEK293 cells for 48 h; interactor lysis buffer 2 (50 mM Tris/HCl, 50 mM NaCl, 1.5 mM MgCl2, 10% glycerol, 0.3% NP40, phosphatase inhibitors); anti-Flag antibody on Dynabeads ProteinG, 30 min at 4 °C; eluted with 3xFlag peptide; western blot. For orientation: Immunoblotting shows a protein as a band on a membrane.

Amino acid sequences for entries named in this document (tags omitted).
UniProt Q01844: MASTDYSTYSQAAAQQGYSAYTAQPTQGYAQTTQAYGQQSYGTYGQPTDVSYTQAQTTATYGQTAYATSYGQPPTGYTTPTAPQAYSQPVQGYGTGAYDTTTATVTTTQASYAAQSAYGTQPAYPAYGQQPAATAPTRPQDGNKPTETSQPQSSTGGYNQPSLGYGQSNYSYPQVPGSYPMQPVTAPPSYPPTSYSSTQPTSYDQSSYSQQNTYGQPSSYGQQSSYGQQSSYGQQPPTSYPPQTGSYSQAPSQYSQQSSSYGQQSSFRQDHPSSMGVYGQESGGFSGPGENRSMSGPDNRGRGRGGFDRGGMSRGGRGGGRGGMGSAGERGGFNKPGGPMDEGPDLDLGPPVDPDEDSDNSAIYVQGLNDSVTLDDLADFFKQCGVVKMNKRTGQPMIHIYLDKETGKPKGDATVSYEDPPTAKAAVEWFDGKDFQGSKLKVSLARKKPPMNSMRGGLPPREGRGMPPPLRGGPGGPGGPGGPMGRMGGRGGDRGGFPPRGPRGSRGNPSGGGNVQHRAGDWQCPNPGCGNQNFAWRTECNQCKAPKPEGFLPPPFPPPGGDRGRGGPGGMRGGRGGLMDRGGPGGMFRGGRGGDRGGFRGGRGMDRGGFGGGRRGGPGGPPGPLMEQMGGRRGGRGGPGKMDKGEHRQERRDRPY

For a further assay, the target named is 3xflag-EWSR1 (UniProt Q01844). Described as above.

The record followed here is article PMC6353870.

No constants are given. Whether binding was seen depends on the method and setting. Binding seen in cells or lysates may run through a third protein. Some binding calls cover weakened binding; strength is not graded here. Where a sequence is shown, tags or fusion partners need not be part of it.

B1: 3xmyc-USP19 (ubiquitin specific protease 19) (enzyme, UniProt O94966 1-1318)
chain: MSGGASATGPRRGPPGLEDTTSKKKQKDRANQESKDGDPRKETGSRYVAQAGLEPLASGDPSASASHAAGITGSRHRTRLFFPSSSGSASTPQEEQTKEGACEDPHDLLATPTPELLLDWRQSAEEVIVKLRVGVGPLQLEDVDAAFTDTDCVVRFAGGQQWGGVFYAEIKSSCAKVQTRKGSLLHLTLPKKVPMLTWPSLLVEADEQLCIPPLNSQTCLLGSEENLAPLAGEKAVPPGNDPVSPAMVRSRNPGKDDCAKEEMAVAADAATLVDEPESMVNLAFVKNDSYEKGPDSVVVHVYVKEICRDTSRVLFREQDFTLIFQTRDGNFLRLHPGCGPHTTFRWQVKLRNLIEPEQCTFCFTASRIDICLRKRQSQRWGGLEAPAARVGGAKVAVPTGPTPLDSTPPGGAPHPLTGQEEARAVEKDKSKARSEDTGLDSVATRTPMEHVTPKPETHLASPKPTCMVPPMPHSPVSGDSVEEEEEEEKKVCLPGFTGLVNLGNTCFMNSVIQSLSNTRELRDFFHDRSFEAEINYNNPLGTGGRLAIGFAVLLRALWKGTHHAFQPSKLKAIVASKASQFTGYAQHDAQEFMAFLLDGLHEDLNRIQNKPYTETVDSDGRPDEVVAEEAWQRHKMRNDSFIVDLFQGQYKSKLVCPVCAKVSITFDPFLYLPVPLPQKQKVLPVFYFAREPHSKPIKFLVSVSKENSTASEVLDSLSQSVHVKPENLRLAEVIKNRFHRVFLPSHSLDTVSPSDTLLCFELLSSELAKERVVVLEVQQRPQVPSVPISKCAACQRKQQSEDEKLKRCTRCYRVGYCNQLCQKTHWPDHKGLCRPENIGYPFLVSVPASRLTYARLAQLLEGYARYSVSVFQPPFQPGRMALESQSPGCTTLLSTGSLEAGDSERDPIQPPELQLVTPMAEGDTGLPRVWAAPDRGPVPSTSGISSEMLASGPIEVGSLPAGERVSRPEAAVPGYQHPSEAMNAHTPQFFIYKIDSSNREQRLEDKGDTPLELGDDCSLALVWRNNERLQEFVLVASKELECAEDPGSAGEAARAGHFTLDQCLNLFTRPEVLAPEEAWYCPQCKQHREASKQLLLWRLPNVLIVQLKRFSFRSFIWRDKINDLVEFPVRNLDLSKFCIGQKEEQLPSYDLYAVINHYGGMIGGHYTACARLPNDRSSQRSDVGWRLFDDSTVTTVDESQVVTRYAYVLFYRRRNSPVERPPRAGHSEHHPDLGPAAEAAASQASRIWQELEAEEEPVPEGSGPLGPWGPQDWVGPLPRGPTTPDEGCLRYFVLGTVAALVALVLNVFYPLVSQSRWR
With B1, the binding result with 3xflag-FLI1 is “no binding”; in the assay with 3xflag-EWSR1, “binds”.
